For one substance, binding results are on record in article PMC8905620.

By UniProt entry, the sequences of proteins in these tests, tags left out. Where a name states a change or a piece, a line headed by the entry shows the natural chain unless it says otherwise. Chains listed by the source or under a name are the forms on record and can include a tag or linker.
R957C Arkadia^927-994 RING domain (Q6ZNA4, form named): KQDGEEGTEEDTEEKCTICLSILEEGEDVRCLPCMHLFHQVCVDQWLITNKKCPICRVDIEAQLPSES

Results are given in words; binding and its absence hold for the method and conditions named.

The target in the assay is R957C Arkadia^927-994 RING domain (human) (UniProt Q6ZNA4). As to the kind of experiment: 15N NMR relaxation (correlation time from R2/R1); 15N T1, T2 and heteronuclear NOE at 298 K, 600 and 700 MHz; isotropic tumbling time 4.69 ns; both purified.

Regarding “R957C Arkadia^927-994 RING domain (from UniProt Q6ZNA4 927-994) (domain or fragment)”, the binding result is “no binding”.
